The results in this text go back to PMC6001170.

The chains behind the UniProt entries cited, without tags or fusion partners.
UniProt Q96A61: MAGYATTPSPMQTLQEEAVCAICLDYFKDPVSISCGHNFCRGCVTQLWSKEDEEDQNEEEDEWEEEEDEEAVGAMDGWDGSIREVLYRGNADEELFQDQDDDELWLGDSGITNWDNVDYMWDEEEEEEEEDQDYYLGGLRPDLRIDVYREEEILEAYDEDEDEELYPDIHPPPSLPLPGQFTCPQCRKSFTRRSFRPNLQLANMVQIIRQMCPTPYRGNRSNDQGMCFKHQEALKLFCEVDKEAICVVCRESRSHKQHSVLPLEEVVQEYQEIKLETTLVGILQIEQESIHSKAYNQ

This test concerns the target T1, Protein phosphatase, Mg2+/Mn2+ dependent 1A (PPM1A) (human (in the human cell lines MHCC-97H and MHCC-97L)) (UniProt P35813).
T1 sequence: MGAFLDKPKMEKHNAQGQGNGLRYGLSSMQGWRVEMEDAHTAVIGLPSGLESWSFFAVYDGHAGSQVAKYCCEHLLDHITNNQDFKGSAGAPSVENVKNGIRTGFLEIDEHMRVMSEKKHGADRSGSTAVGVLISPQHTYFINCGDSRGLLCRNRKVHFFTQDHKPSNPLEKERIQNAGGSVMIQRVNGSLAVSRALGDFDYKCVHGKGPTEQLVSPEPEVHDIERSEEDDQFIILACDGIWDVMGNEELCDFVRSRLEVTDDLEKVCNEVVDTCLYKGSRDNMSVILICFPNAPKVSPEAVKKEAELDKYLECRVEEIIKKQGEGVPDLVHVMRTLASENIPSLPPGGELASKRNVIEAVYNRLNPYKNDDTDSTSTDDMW
As to the kind of experiment: co-IP; lysates of MHCC-97H and MHCC-97L cells in lysis buffer with protease inhibitors; supernatants incubated with normal IgG or antibody, Protein A-Sepharose; Western blot with anti-TRIM52 and anti-PPM1A.

No constants are given. Whether binding was seen depends on the method and setting. Binding seen in cells or lysates may run through a third protein. Some results given as binding are weak or reduced against the parent protein; the word gives no strength.

On to “Tripartite motif containing 52 (TRIM52) (from UniProt Q96A61 1-297)”, for which the binding result is “binds”.
